The other results are listed elsewhere or left out.

Amino acid sequences for entries named in this document (tags omitted). A change or cut given only in a name is not applied to a line headed by its entry.
UniProt Q9P0S3: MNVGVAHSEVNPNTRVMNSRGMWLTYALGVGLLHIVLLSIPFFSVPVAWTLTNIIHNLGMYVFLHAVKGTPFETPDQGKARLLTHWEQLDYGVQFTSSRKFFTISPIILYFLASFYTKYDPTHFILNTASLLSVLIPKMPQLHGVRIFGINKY
UniProt Q6N063: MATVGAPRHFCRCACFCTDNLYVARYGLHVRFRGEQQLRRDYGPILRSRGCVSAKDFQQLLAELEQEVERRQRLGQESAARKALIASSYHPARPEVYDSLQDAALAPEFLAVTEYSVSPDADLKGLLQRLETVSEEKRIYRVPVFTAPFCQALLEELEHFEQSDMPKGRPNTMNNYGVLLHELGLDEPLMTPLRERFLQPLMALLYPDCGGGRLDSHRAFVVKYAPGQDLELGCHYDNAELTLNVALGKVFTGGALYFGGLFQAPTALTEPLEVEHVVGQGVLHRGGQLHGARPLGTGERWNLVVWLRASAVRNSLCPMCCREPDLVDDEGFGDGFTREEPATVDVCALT
UniProt O60890: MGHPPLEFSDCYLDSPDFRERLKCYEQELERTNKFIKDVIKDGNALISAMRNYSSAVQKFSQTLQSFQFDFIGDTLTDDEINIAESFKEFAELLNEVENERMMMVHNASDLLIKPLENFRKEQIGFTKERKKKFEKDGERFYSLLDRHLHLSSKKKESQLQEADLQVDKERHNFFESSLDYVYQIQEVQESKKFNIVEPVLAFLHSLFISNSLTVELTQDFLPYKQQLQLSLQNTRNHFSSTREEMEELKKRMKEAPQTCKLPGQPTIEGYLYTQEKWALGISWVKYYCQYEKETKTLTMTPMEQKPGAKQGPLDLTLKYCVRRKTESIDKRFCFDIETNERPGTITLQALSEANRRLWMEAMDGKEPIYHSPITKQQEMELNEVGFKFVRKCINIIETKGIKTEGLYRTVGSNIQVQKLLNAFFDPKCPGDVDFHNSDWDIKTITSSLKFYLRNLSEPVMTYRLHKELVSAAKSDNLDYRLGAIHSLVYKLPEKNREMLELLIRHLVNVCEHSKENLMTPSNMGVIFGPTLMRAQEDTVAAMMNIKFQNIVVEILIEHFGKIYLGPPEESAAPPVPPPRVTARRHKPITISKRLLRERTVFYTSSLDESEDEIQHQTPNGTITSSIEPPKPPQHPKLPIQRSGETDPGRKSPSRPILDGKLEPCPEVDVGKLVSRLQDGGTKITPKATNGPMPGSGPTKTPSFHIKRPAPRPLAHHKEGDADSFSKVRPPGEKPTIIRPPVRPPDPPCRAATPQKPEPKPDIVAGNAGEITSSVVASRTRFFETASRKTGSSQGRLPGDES
UniProt Q8WZ82: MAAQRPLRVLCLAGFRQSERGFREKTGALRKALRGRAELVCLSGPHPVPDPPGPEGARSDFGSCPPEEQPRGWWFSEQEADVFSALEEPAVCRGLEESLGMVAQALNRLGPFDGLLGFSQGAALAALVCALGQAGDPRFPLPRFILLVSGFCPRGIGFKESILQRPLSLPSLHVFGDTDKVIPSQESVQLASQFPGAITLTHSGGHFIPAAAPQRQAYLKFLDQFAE
UniProt Q5BKU9: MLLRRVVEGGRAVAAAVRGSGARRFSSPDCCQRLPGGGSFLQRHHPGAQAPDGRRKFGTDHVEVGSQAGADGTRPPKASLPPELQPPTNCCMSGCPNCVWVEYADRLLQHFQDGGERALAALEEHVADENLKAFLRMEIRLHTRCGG
UniProt Q9H1P3, whole entry, looked up: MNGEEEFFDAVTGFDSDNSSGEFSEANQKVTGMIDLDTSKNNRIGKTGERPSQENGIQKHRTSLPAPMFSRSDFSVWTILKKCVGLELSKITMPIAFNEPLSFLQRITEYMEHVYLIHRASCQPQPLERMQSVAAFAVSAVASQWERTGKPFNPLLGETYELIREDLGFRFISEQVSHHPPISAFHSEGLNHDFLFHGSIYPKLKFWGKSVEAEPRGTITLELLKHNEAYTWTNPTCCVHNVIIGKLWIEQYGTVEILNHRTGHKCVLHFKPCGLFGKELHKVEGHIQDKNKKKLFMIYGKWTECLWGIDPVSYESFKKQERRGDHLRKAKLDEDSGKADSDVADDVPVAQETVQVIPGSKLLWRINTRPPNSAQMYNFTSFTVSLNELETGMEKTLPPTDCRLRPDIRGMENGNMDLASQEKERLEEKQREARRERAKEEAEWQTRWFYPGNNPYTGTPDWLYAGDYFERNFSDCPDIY
UniProt P11926: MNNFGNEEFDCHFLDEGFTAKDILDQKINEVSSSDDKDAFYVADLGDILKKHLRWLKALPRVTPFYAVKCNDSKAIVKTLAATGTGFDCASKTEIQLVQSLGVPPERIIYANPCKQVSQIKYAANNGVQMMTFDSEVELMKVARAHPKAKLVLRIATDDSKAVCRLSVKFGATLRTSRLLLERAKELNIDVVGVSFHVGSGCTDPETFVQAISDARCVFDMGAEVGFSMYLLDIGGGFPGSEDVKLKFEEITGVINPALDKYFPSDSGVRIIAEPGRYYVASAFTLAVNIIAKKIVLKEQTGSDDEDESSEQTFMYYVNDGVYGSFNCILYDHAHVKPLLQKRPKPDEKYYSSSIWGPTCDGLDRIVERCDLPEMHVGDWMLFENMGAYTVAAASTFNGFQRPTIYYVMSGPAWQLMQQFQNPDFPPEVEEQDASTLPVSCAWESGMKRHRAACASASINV
UniProt Q8N138: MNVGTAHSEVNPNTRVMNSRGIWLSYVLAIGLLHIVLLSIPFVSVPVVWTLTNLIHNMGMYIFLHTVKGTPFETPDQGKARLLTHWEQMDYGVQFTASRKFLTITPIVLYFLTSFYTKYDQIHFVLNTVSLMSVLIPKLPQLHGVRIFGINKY
UniProt Q9H4B0: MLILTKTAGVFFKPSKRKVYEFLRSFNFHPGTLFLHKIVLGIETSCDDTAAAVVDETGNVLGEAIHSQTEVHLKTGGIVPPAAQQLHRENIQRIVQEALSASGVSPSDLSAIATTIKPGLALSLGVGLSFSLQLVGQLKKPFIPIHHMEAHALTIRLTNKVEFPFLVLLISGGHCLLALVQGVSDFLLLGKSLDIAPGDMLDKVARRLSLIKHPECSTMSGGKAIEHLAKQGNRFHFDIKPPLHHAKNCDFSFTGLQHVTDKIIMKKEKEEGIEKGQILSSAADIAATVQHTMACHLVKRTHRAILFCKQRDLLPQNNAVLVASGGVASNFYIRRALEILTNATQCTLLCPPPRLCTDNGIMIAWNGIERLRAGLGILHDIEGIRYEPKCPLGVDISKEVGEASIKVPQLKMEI
UniProt Q9BZD4: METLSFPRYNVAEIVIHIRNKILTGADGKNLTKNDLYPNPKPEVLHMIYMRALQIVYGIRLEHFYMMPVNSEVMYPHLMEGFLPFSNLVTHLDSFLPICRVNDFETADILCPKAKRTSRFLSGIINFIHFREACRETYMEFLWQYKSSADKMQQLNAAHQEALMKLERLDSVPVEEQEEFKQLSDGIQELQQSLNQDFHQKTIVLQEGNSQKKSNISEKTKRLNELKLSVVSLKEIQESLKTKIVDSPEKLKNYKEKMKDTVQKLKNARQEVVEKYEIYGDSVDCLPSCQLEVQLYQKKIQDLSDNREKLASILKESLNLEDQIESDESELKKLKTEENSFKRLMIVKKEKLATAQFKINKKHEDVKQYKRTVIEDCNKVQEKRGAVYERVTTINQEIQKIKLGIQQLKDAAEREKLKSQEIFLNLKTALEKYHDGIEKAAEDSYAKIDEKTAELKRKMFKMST
UniProt Q99571: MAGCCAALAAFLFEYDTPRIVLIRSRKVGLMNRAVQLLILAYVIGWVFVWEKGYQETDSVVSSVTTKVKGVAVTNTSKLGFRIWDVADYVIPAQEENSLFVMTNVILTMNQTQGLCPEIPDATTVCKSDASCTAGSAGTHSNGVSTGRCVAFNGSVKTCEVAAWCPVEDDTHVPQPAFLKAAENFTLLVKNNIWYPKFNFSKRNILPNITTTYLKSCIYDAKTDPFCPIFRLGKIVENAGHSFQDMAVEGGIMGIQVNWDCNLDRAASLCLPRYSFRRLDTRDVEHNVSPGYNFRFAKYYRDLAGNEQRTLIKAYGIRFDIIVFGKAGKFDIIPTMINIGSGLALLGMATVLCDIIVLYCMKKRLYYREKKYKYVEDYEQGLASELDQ
UniProt Q9Y6R0: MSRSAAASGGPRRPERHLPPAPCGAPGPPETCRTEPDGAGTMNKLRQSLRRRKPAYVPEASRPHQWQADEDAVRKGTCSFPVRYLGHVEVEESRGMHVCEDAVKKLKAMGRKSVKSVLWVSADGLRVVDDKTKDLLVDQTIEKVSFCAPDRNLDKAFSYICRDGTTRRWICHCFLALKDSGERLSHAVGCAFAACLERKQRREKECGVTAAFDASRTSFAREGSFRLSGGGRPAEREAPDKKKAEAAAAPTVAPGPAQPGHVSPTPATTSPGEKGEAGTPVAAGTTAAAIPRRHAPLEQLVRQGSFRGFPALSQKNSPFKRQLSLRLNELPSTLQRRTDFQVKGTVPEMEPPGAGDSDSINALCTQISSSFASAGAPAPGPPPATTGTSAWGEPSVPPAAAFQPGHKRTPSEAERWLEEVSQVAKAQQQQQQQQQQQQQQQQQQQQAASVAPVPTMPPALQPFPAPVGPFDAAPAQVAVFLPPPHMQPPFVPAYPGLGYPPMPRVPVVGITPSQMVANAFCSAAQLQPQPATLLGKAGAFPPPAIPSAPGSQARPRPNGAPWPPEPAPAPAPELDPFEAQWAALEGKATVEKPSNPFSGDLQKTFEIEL
UniProt O95848: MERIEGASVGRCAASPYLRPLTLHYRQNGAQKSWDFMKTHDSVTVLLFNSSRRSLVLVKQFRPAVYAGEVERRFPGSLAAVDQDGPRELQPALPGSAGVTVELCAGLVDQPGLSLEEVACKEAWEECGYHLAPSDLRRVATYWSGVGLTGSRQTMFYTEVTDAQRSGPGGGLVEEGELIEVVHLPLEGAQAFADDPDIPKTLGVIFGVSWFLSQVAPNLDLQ
UniProt Q969T7: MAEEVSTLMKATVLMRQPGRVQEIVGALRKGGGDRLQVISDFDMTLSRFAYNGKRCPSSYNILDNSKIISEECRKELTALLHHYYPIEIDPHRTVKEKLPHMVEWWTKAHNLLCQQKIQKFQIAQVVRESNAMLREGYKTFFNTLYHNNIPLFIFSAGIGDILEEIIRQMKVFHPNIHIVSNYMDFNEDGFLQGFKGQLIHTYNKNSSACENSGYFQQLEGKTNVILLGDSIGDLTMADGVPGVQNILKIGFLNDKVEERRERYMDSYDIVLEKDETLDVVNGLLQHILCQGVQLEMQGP
UniProt P47900: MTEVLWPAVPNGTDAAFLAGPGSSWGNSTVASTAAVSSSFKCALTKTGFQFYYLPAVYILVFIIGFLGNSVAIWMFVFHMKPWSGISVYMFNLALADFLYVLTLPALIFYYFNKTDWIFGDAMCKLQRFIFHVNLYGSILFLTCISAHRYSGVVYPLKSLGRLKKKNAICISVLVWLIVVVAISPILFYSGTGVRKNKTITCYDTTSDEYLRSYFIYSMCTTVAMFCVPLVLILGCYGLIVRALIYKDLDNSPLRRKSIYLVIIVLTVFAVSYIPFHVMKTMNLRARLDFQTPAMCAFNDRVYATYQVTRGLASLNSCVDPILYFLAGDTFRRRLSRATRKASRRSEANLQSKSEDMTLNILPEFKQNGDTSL
UniProt P50583: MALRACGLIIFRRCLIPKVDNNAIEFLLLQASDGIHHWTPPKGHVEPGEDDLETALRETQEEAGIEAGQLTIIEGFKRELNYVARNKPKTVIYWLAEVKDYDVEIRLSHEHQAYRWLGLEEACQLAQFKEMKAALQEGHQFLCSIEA
UniProt Q96CV9, whole entry, looked up: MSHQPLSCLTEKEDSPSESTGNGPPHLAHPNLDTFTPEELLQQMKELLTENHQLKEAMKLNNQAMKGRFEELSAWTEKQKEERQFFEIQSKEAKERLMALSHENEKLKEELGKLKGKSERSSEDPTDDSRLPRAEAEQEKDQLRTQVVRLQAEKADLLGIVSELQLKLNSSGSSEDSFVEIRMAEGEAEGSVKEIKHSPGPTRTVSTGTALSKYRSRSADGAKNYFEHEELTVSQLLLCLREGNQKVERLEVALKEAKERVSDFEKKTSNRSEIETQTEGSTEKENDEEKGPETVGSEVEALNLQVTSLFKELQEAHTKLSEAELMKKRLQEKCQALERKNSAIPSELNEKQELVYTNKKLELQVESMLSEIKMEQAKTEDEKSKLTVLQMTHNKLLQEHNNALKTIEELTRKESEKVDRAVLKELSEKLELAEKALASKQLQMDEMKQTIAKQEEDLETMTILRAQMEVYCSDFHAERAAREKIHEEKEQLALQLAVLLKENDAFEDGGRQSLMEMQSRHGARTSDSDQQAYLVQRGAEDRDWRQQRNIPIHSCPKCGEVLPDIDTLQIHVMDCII
UniProt P0C025: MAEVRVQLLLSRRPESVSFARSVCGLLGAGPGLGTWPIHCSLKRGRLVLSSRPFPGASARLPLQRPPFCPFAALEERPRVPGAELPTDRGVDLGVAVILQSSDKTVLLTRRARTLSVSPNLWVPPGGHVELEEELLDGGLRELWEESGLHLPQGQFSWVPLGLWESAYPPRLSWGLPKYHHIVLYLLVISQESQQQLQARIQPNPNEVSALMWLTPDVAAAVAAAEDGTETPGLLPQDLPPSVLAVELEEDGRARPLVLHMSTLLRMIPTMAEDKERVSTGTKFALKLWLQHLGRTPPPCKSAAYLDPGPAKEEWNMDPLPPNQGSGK

Consider 30 targets from the supplement of paper PMC10849652.

Compound in one test: CC[C@@H]1C(=O)N(C)c2cnc(Nc3ccc(C(=O)NC4CCN(C)CC4)cc3OC)nc2N1C1CCCC1
As to the kind of experiment: log2 fold change, soluble protein after heating vs DMSO (PISA); higher = thermal stabilisation; K562 cells, 10 uM, 30 min; active = over 0.2 and 3.5 SD of the protein, either way, in both replicates (recomputed). The procedure, abridged: (§1)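 For each measurement, 10 μM compound was applied for 30 min to K562 cells at 2×10^6 cells/mL. Aliquots were heated for 3 min across 48°C-58°C, pooled, and extracted in PBS with 0.5% NP-40 at 4°C; the supernatant after 21,000xg for 90 min was soluble protein. This was quantified by TMTpro 16plex LC-MS/MS with channel sums equalised, and thermal stability was reported relative to control samples from duplicates, on a log2 fold-change scale.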
For the target ODF2L isoform 4 (UniProt Q9ULJ1), the log2 fold change was inactive: 0.127.

Consider ORMDL1 (UniProt Q9P0S3), for which the log2 fold change was inactive: -0.042.

For the target OGFOD2 (UniProt Q6N063), the log2 fold change was inactive: -0.007.

OBSCN (UniProt A6NGQ3): the log2 fold change is inactive: -0.113.

Consider OPHN1 (UniProt O60890), for which the log2 fold change was inactive: 0.036.

Consider OCIAD1 (UniProt D6RDK6), for which the log2 fold change was inactive: 0.236.

On to OVCA2 (UniProt Q8WZ82), for which the log2 fold change was inactive: -0.352.

Turning to OXLD1 (UniProt Q5BKU9), the log2 fold change is inactive: 0.124.

Compound in the next test: CC[C@@H]1C(=O)N(C)c2cnc(Nc3ccc(C(=O)N[C@H]4CC[C@H](N5CCN(CC6CC6)CC5)CC4)cc3OC)nc2N1C(C)C [volasertib]
The test is described as above. The method in brief: as §1
On to OSBPL2 (UniProt Q9H1P3), for which the log2 fold change is inactive: 0.025.

With ODC1 (UniProt P11926), the log2 fold change is inactive: 0.034.

As to NXF1 (UniProt Q9UBU9), the log2 fold change is inactive: -0.068.

As for OBSCN (UniProt A6NGQ3), the log2 fold change is inactive: 0.038.

As to ORMDL3 (UniProt Q8N138), the log2 fold change is inactive: -0.283.

For the target OSGEPL1 (UniProt Q9H4B0), the log2 fold change is inactive: 0.125.

Consider OCIAD1 (UniProt D6RDK6), for which the log2 fold change was inactive: 0.126.

As for NUF2 (UniProt Q9BZD4), the log2 fold change is inactive: -0.127.

Turning to P2RX4 isoform 2 (UniProt Q99571), the log2 fold change is inactive: 0.178.

OVCA2 (UniProt Q8WZ82): the log2 fold change is inactive: -0.47.

Turning to NUMBL (UniProt Q9Y6R0), the log2 fold change is inactive: 0.019.

With NUDT14 (UniProt O95848), the log2 fold change was inactive: -0.14.

For the target NT5C3B (UniProt Q969T7), the log2 fold change is inactive: -0.161.

With P2RY1 (UniProt P47900), the log2 fold change was inactive: -0.036.

Consider NUDT2 (UniProt P50583), for which the log2 fold change is inactive: -0.177.

For the target OPTN (UniProt Q96CV9), the log2 fold change is inactive: -0.18.

With PABPC1 (UniProt E5RJM8), the log2 fold change is inactive: 0.168.

OGFOD3 (UniProt Q6PK18): the log2 fold change was inactive: 0.097.

Compound in a further test: CC[C@H](C)N1C=C(C2=C(C=C(C=C21)C3=CN=C(C=C3)N4CCNCC4)C(=O)NCC5=C(C=C(NC5=O)C)C)C
The description is as above. The procedure, abridged:
as §1
Turning to NUDT7 (UniProt P0C024), the log2 fold change was inactive: 0.187.

Take ODF2L isoform 4 (UniProt Q9ULJ1): the log2 fold change is inactive: -0.01.

With OGFOD2 (UniProt Q6N063), the log2 fold change is inactive: -0.019.

On to ODC1 (UniProt P11926), for which the log2 fold change was inactive: 0.034.

Take NXF1 (UniProt Q9UBU9): the log2 fold change was inactive: 0.095.

In the case of OBSCN (UniProt A6NGQ3), the log2 fold change was inactive: -0.065.

Turning to OPHN1 (UniProt O60890), the log2 fold change is inactive: -0.016.

Consider NUF2 (UniProt Q9BZD4), for which the log2 fold change is inactive: 0.173.

In the case of P2RX4 isoform 2 (UniProt Q99571), the log2 fold change is inactive: -0.118.

In the case of OVCA2 (UniProt Q8WZ82), the log2 fold change was inactive: 0.083.

Consider NUMBL (UniProt Q9Y6R0), for which the log2 fold change is inactive: 0.073.

On to NT5C3B (UniProt Q969T7), for which the log2 fold change was inactive: -0.066.

Regarding NUDT2 (UniProt P50583), the log2 fold change was inactive: 0.049.

As for OXLD1 (UniProt Q5BKU9), the log2 fold change was inactive: -0.074.

Turning to NUDT17 (UniProt P0C025), the log2 fold change was inactive: 0.102.

With OPTN (UniProt Q96CV9), the log2 fold change is inactive: 0.11.

For OGFOD3 (UniProt Q6PK18), the log2 fold change is inactive: 0.065.

Compound in the next test: CC[C@H](C)[C@@H](C(=O)N[C@@H]([C@@H](C)O)C(=O)N[C@@H](CC(C)C)C(=O)[C@]1(CO1)C)NC(=O)[C@H]([C@@H](C)CC)N(C)C(=O)C [epoxomicin]
The description is as above. The method in brief: as §1
Take NUDT7 (UniProt P0C024): the log2 fold change was inactive: -0.067.

Consider ORMDL1 (UniProt Q9P0S3), for which the log2 fold change was inactive: 0.245.

In the case of OGFOD2 (UniProt Q6N063), the log2 fold change was inactive: 0.08.

OPHN1 (UniProt O60890): the log2 fold change is inactive: 0.043.

With OCIAD1 (UniProt D6RDK6), the log2 fold change was inactive: -0.148.

For the target NUF2 (UniProt Q9BZD4), the log2 fold change is inactive: -0.14.

P2RX4 isoform 2 (UniProt Q99571): the log2 fold change is inactive: -0.043.

For the target NUDT5 (UniProt C9JYY9), the log2 fold change was inactive: -0.182.

Take NUMBL (UniProt Q9Y6R0): the log2 fold change was inactive: -0.01.

Regarding P2RY1 (UniProt P47900), the log2 fold change was inactive: -0.043.

Consider NUDT2 (UniProt P50583), for which the log2 fold change is inactive: 0.1.

As for NUDT17 (UniProt P0C025), the log2 fold change was inactive: -0.181.

With OPTN (UniProt Q96CV9), the log2 fold change is inactive: 0.19.

Consider P3H3 (UniProt Q8IVL6), for which the log2 fold change was inactive: -0.164.

For the target ODF2 (UniProt Q5BJF6), the log2 fold change was inactive: 0.09.

Compound in the next test: CCn1c(C(=O)N(C2CC2)C2CC2)cc2c3c(ncn3C)c(Nc3cc(C)n(C)n3)nc21
Described as above. The method in brief:
as §1
On to ORMDL1 (UniProt Q9P0S3), for which the log2 fold change was inactive: 0.168.

Regarding ODC1 (UniProt P11926), the log2 fold change was inactive: -0.104.

Consider ORMDL3 (UniProt Q8N138), for which the log2 fold change is inactive: 0.024.

As to OSGEPL1 (UniProt Q9H4B0), the log2 fold change is inactive: 0.058.

For the target OCIAD1 (UniProt D6RDK6), the log2 fold change is inactive: 0.071.

With P2RX4 isoform 2 (UniProt Q99571), the log2 fold change is inactive: 0.004.

As to NUDT5 (UniProt C9JYY9), the log2 fold change is inactive: -0.08.

With NT5C3B (UniProt Q969T7), the log2 fold change was inactive: 0.002.

As for P2RY1 (UniProt P47900), the log2 fold change was inactive: 0.121.

Turning to NUDT2 (UniProt P50583), the log2 fold change was inactive: 0.085.

As to NUDT17 (UniProt P0C025), the log2 fold change was inactive: -0.172.

Consider OSBPL11 (UniProt Q9BXB4), for which the log2 fold change is inactive: 0.35.

For the target OPA3 isoform 2 (UniProt Q9H6K4), the log2 fold change was inactive: 0.01.

Regarding OPTN (UniProt Q96CV9), the log2 fold change was inactive: -0.073.
